US11572475B2, “Carbocyanines for G-quadruplex DNA stabilization and telomerase inhibition” (GEORGIA STATE UNIVERSITY RESEARCH FOUNDATION, INC., priority 2011, dated 2023)

Columns and labels:
c-myc = test: Isothermal calorimetry, c-myc; type: binding; conditions: ITC, 25° C.
Experimental: (§1) DNA binding is dependent on enthalpy and entropy, components of the Gibbs free energy. Isothermal calorimetry measures the heat absorbed (endothermic binding) or released (exothermic binding) in binding at the μcalorie level. By examining the thermodynamics of different compounds, compounds can be analyzed to determine what factors favor quadruplex over duplex DNA binding. Enthalpy and binding constants are determined from measuring the heat change when compound is injected into a DNA solution, and the equations ΔG=ΔH−TΔS ΔG=−RT ln K are used to calculate entropy and Gibbs free energy.
(§2) Solutions of compound (0.2 mM) were injected 30 times into solutions of DNA (0.02 mM) on a VPC-ITC. All solutions were degasses at 25° C. for 15 minutes. TRIS/K^+ buffer was used in the reference cell. The injections were monitored at 25° C. with a reference power of 1 μcal/sec, an initial delay of 300 sec, and a stirring speed of 290. The first injection was 2 μL for 4 sec, with a spacing of 300 sec, and a filter period of 1 sec. The remaining 29 injections were 10 μL volume for a duration of 20 sec, with a spacing of 300 sec, and a filter period of 1 sec. The data was analyzed by VPViewer 2000 software.
(§3) Isothermal calorimetry (ITC) experiments were performed to test the SPR and fluorescence preference in binding c-myc over hTelo. ITC is known to under-estimate binding constants for strong binding compounds in comparison with other techniques such as SPR as shown in Tables 4 and 5 for MH-5 and A-C8, respectively.

hTelo = test: Isothermal calorimetry, hTelo; type: binding, human; conditions: ITC, 25° C.
Experimental: as §1, §2, §3

| Structure (SMILES) | Stoichiometry, c-myc (c-myc) | ΔG (cal/mol), c-myc (c-myc) | ΔH (cal/mol), c-myc (c-myc) | ΔS cal/(mol C. °), c-myc (c-myc) | Stoichiometry, hTelo (hTelo) | ΔG (cal/mol), hTelo (hTelo) | ΔH (cal/mol), hTelo (hTelo) | ΔS (cal/mol C. °), hTelo (hTelo) |
| --- | --- | --- | --- | --- | --- | --- | --- | --- |
| CC1(C)C(/C=C/C=C2/N(CCC[N+](C)(C)C)c3ccc(Br)cc3C2(C)C)=[N+](CCC[N+](C)(C)C)c2ccc(Br)cc21 [MH5 (28)] | 1.11 ± 0.01 | -8278.85 cal/mol | -3190 ± 40 cal/mol | 17.1 cal/(mol C. °) |  |  |  |  |
| CC1(C)C(/C=C/C(Br)=C/C=C2\N(CCC[N+](C)(C)C)c3ccccc3C2(C)C)=[N+](CCC[N+](C)(C)C)c2ccccc21 [A-C8 (43)] | 1.22 ± 0.01 | -8045.32 cal/mol | -2100 ± 20 cal/mol | 20 cal/(mol C. °) | 1.02 ± 0.02 | -6466.94 cal/mol | -6100 ± 200 cal/mol | 1.15 cal/mol C. ° |
